Test results reported in the supplement of paper PMC6411743.
± gives the standard deviation of the averaged measurements. Only a part is listed here, and it is no random draw.

Key:
Assay in all cases: NP40-soluble protein abundance relative to vehicle (solubility fold change) (ratio); higher = more soluble protein in presence of ATP
[1] = target: T1, E7EMK3 and related entries (UniProt Q14254)
T1 sequence (whole entry): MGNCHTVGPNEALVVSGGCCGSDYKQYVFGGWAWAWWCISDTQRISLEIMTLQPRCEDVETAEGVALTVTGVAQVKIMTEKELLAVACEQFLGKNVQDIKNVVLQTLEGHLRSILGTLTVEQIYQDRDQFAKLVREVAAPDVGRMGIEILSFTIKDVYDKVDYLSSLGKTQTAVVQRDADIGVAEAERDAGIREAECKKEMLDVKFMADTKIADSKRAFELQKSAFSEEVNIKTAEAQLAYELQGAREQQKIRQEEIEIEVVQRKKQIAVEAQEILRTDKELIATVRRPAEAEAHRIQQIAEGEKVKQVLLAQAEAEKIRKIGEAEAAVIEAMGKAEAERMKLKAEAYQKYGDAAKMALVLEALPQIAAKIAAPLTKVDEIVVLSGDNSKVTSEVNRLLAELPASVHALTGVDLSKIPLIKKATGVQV
Outline: (§1)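 Across three independent experiments, values are fold changes against the detergent-processed vehicle for each replicate, based on vsn-normalised intensities. The samples were Jurkat crude lysate treated with eight concentrations (0.1 to 10 mM) for 10 min at room temperature and then 3 min at 37 °C. Lysate was solubilised with 0.8% NP40 and benzonase, ultracentrifuged, and the supernatant analysed by TMT-labelled LC-MS/MS.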

[2] = target: T2, E7EQ69 and related entries (UniProt Q9GZZ1)
T2 sequence (whole entry): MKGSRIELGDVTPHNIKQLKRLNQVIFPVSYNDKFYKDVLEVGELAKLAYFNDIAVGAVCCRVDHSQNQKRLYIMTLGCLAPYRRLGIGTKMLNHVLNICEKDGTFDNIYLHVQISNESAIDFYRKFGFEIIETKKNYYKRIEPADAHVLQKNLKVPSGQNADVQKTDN
Outline: as §1

[3] = target: T3, E7ER26 and related entries (UniProt P57071)
T3 sequence (whole entry): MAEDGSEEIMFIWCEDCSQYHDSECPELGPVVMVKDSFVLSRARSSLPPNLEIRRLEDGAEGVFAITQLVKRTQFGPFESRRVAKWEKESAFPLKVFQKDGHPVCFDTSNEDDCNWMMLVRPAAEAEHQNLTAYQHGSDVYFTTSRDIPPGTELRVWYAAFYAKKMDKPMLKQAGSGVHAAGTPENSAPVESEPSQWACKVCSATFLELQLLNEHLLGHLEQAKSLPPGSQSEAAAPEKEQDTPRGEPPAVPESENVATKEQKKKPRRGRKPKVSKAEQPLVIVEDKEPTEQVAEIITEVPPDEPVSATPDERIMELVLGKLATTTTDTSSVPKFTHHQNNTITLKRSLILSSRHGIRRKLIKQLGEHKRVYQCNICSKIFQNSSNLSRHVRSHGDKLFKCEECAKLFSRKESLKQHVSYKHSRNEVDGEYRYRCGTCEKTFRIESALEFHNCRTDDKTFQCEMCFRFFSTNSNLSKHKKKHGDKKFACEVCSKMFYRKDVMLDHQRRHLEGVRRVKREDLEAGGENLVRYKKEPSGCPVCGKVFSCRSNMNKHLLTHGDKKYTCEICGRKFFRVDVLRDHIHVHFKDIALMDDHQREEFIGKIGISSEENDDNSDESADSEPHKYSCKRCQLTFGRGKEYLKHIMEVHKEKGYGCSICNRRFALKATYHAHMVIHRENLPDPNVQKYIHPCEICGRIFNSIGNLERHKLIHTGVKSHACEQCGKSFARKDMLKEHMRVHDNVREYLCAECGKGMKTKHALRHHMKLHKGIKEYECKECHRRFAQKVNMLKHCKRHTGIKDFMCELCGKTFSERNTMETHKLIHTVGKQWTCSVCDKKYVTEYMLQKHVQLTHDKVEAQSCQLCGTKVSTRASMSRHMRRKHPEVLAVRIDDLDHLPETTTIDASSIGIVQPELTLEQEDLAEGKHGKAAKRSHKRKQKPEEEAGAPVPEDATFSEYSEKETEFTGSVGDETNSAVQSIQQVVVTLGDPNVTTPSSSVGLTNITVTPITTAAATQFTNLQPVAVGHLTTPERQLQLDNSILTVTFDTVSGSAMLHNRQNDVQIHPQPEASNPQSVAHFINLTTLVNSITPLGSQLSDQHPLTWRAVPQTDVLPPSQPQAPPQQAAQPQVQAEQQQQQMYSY
Outline: as §1

[4] = target: T4, E7ESC7 and related entries (UniProt Q7L5Y9)
T4 sequence (whole entry): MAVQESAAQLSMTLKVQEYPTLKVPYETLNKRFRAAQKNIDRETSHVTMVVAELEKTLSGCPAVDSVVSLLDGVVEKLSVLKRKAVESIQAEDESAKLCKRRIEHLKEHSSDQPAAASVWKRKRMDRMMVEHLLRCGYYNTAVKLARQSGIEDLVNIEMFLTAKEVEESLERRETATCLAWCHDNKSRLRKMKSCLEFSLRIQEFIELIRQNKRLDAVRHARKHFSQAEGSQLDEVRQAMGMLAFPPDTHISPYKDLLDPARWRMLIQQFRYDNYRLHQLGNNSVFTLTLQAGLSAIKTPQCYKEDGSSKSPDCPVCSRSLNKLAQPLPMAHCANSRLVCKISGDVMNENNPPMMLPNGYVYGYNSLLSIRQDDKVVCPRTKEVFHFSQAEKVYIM
Outline: as §1

[5] = target: T5, E9PCW1 and related entries (UniProt O95249)
T5 sequence (whole entry): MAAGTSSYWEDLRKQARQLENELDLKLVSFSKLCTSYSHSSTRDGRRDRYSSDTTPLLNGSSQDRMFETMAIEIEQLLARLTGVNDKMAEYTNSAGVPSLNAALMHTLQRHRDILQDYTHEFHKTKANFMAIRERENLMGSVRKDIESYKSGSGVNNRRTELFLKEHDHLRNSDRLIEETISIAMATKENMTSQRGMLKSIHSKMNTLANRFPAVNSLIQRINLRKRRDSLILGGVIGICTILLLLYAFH
Outline: as §1

[6] = target: T6, E9PDQ8 and related entries (UniProt Q96I99)
T6 sequence (whole entry): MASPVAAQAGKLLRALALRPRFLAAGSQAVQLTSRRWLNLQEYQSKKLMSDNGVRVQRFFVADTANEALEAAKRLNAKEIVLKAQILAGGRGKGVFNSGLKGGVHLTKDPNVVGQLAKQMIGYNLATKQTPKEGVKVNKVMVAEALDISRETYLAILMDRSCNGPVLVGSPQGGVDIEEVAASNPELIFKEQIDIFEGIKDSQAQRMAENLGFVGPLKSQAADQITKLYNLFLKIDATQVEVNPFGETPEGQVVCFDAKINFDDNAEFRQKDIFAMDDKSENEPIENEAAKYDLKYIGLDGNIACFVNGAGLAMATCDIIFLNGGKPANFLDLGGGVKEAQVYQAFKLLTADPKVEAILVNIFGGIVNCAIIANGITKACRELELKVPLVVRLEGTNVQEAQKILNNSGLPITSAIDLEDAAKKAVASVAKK
Outline: as §1

[7] = target: T7, E9PFB9 and related entries (UniProt Q5T9S5)
T7 sequence (whole entry): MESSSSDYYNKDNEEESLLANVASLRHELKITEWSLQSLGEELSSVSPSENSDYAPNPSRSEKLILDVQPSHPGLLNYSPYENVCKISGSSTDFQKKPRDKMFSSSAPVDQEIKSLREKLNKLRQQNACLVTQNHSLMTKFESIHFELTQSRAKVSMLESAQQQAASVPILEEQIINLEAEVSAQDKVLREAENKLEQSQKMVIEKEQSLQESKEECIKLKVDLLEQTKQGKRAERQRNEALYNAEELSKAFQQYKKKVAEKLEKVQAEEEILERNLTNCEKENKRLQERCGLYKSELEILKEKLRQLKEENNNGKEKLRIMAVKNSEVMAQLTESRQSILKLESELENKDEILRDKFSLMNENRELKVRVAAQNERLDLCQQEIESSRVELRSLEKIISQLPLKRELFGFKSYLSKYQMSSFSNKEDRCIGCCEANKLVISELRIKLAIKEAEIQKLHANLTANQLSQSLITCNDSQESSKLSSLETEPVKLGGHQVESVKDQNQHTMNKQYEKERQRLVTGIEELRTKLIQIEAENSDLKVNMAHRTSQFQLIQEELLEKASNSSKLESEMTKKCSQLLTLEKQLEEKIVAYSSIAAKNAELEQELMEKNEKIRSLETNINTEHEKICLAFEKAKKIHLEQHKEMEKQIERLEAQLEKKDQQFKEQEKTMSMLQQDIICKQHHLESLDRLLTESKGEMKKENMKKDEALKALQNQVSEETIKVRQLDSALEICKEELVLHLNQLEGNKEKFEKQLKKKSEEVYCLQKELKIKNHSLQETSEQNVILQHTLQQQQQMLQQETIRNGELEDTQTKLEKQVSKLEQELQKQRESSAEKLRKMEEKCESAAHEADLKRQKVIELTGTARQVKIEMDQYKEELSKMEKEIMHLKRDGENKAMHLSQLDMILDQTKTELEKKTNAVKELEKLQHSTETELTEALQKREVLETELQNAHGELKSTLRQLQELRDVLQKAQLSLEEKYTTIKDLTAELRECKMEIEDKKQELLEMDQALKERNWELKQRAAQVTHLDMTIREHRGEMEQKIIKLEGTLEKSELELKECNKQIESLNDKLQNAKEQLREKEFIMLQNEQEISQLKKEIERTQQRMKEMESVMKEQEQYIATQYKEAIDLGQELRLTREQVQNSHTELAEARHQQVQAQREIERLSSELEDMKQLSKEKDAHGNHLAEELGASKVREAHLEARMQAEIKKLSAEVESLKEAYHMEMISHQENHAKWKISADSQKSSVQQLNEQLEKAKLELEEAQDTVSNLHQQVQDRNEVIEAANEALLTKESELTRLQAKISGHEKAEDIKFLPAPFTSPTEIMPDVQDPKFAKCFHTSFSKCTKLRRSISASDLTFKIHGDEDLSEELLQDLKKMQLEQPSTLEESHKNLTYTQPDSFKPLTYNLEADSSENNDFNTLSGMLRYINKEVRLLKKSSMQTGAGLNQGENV
Outline: as §1

Work on `Nc1ncnc2c1ncn2[C@@H]1O[C@H](COP(=O)(O)OP(=O)(O)OP(=O)(O)O)[C@@H](O)[C@H]1O` [adenosine triphosphate] yielded an NP40-soluble protein abundance ([1]; concentration: 1mM) of 1.06 ± 0.017, an NP40-soluble protein abundance ([1]; concentration: 2mM) of 0.96 ± 0.03 and an NP40-soluble protein abundance ([1]; concentration: 4mM) of 0.931 ± 0.025. For the same compound, the NP40-soluble protein abundance ([1]; concentration: 6mM) was 0.966 ± 0.2, the NP40-soluble protein abundance ([1]; concentration: 8mM) was 0.945 ± 0.096 and the NP40-soluble protein abundance ([1]; concentration: 10mM) was 0.911 ± 0.072. For the same compound, the NP40-soluble protein abundance ([2]; concentration: 1mM) was 0.932 ± 0.047, the NP40-soluble protein abundance ([2]; concentration: 2mM) was 0.974 ± 0.056 and the NP40-soluble protein abundance ([2]; concentration: 4mM) was 0.934 ± 0.023. It also gave an NP40-soluble protein abundance ([2]; concentration: 6mM) of 0.867 ± 0.11, an NP40-soluble protein abundance ([2]; concentration: 8mM) of 0.915 ± 0.011 and an NP40-soluble protein abundance ([2]; concentration: 10mM) of 0.953 ± 0.014. It also gave an NP40-soluble protein abundance ([3]; concentration: 1mM) of 1.2 ± 0.12, an NP40-soluble protein abundance ([3]; concentration: 2mM) of 1.23 ± 0.05 and an NP40-soluble protein abundance ([3]; concentration: 4mM) of 1.17 ± 0.11. The NP40-soluble protein abundance ([3]; concentration: 6mM) was 1.19 ± 0.042, the NP40-soluble protein abundance ([3]; concentration: 8mM) was 1.14 ± 0.17 and the NP40-soluble protein abundance ([3]; concentration: 10mM) was 1.18 ± 0.019. It also gave an NP40-soluble protein abundance ([4]; concentration: 1mM) of 1.02 ± 0.044, an NP40-soluble protein abundance ([4]; concentration: 2mM) of 0.956 ± 0.036 and an NP40-soluble protein abundance ([4]; concentration: 4mM) of 0.951 ± 0.037. For the same compound, the NP40-soluble protein abundance ([4]; concentration: 6mM) was 0.957 ± 0.11, the NP40-soluble protein abundance ([4]; concentration: 8mM) was 0.98 ± 0.089 and the NP40-soluble protein abundance ([4]; concentration: 10mM) was 0.96 ± 0.096. The NP40-soluble protein abundance ([5]; concentration: 1mM) was 0.953 ± 0.035, the NP40-soluble protein abundance ([5]; concentration: 2mM) was 0.946 ± 0.022 and the NP40-soluble protein abundance ([5]; concentration: 4mM) was 0.958 ± 0.015. It also gave an NP40-soluble protein abundance ([5]; concentration: 6mM) of 0.997 ± 0.013, an NP40-soluble protein abundance ([5]; concentration: 8mM) of 0.971 ± 0.039 and an NP40-soluble protein abundance ([5]; concentration: 10mM) of 0.95 ± 0.083. It also gave an NP40-soluble protein abundance ([6]; concentration: 1mM) of 0.958 ± 0.0096, an NP40-soluble protein abundance ([6]; concentration: 2mM) of 0.976 ± 0.032 and an NP40-soluble protein abundance ([6]; concentration: 4mM) of 0.931 ± 0.017. It also gave an NP40-soluble protein abundance ([6]; concentration: 6mM) of 0.98 ± 0.051, an NP40-soluble protein abundance ([6]; concentration: 8mM) of 0.94 ± 0.033 and an NP40-soluble protein abundance ([6]; concentration: 10mM) of 0.942 ± 0.055. For the same compound, the NP40-soluble protein abundance ([7]; concentration: 1mM) was 0.924 ± 0.07, the NP40-soluble protein abundance ([7]; concentration: 2mM) was 0.901 ± 0.034 and the NP40-soluble protein abundance ([7]; concentration: 4mM) was 0.858 ± 0.035.
